Drawing on patent US20030091620A1, “Transdermal drug delivery systems containing quaternary ammonium salts and methods of using the same” (priority 1999, published 2003), this text covers zone of inhibition for 1 compound.

Experiment [1] deals with E3 organism. As to the kind of experiment: Zone of Inhibition testing of antimicrobial-loaded transdermal matrix disks. Type of experiment: cell-based, gram-positive, coagulase-negative cocci. The conditions noted are these: 24 h. The method, then: These patches were cut into 1 cm^2 disks and subjected to Zone of Inhibition testing against the E3 organism with 24-hour incubation.
In the next experiment, placebo matrix patches (18 cm^2 area) were manufactured for a clinical wear study.

Experiment [2] concerns E3 organism. As to the kind of experiment: Zone of Inhibition testing of paper discs saturated with aqueous antimicrobial solutions. Type of experiment: cell-based, gram-positive, coagulase-negative cocci. The method, then: In this experiment, the effectiveness of various topical antimicrobial agents against the E3 organism was determined using Zone of Inhibition testing of paper discs saturated with aqueous antimicrobial solutions.

The zone of inhibition is the extent of the growth-free halo in a diffusion test. The low end stands for little suppression of growth, the high end for wide suppression of growth. For the compound `CC(C)(C)CC(C)(C)c1ccc(OCCOCC[N+](C)(C)Cc2ccccc2)cc1` [Benzethonium Chloride, benzethonium chloride], the zone of inhibition at 0.4 % strength stood at 17 mm in the experiment with E3 organism [1] and 12 mm in the experiment on E3 organism [2].
